No constants are given. Whether binding was seen depends on the method and setting. Binding seen in cells or lysates may run through a third protein. Some results given as binding are weak or reduced against the parent protein; the word gives no strength.
Columns and labels:
[1] = biological target: GFP-TDP1^KK (R361K, R586K methylation mutant) (human) (UniProt Q9NUW8); test: co-IP; GFP-TDP1 variants expressed in HCT116, immunoprecipitated with anti-GFP antibody, cells with or without CPT (5 uM, 3 h), control siRNA where siRNA was used; lysis buffer 50 mM Tris-HCl pH 7.4, 300 mM NaCl, 0.4% NP40; overnight at 4°C; immunoblot of the endogenous partner
[2] = biological target: GFP-tagged full-length human TDP1 (GFP-TDP1^WT) (human) (UniProt Q9NUW8); test: as above
[3] = biological target: GFP-tagged C-terminal (catalytic) domain of TDP1 (185-608 aa) (human) (UniProt Q9NUW8); test: as above
[4] = biological target: GFP-tagged N-terminal domain of TDP1 (1-185 aa) (human) (UniProt Q9NUW8); test: as above
[5] = biological target: GFP-tagged full-length human TDP1 (GFP-TDP1^WT) (human) (UniProt Q9NUW8); test: co-IP; GFP-TDP1 expressed in HCT116, cell lysates pretreated with benzonase nuclease prior to anti-GFP co-IP; immunoblot with anti-PRMT5
[6] = biological target: Human flag-tagged full-length TDP1 (FLAG-TDP1^WT) (human) (UniProt Q9NUW8); test: co-IP; FLAG-tagged bait (FLAG-PRMT5 constructs or FLAG-TDP1 variants) expressed in HCT116, immunoprecipitated with anti-FLAG antibody, cells with or without CPT (5 uM, 3 h); lysis buffer 50 mM Tris-HCl pH 7.4, 300 mM NaCl, 0.4% NP40; overnight at 4°C; immunoblot of the endogenous partner
[7] = biological target: Tyrosyl-DNA phosphodiesterase 1 (endogenous TDP1) (human (endogenous in HCT116)) (UniProt Q9NUW8); test: co-IP; endogenous TDP1 immunoprecipitated with anti-TDP1 antibody from HCT116 lysate, cells with or without CPT (5 uM, 3 h); lysis buffer 50 mM Tris-HCl pH 7.4, 300 mM NaCl, 0.4% NP40, 10 mM MgCl2, 0.5 mM DTT; overnight at 4°C; immunoblot
[8] = biological target: FLAG-PRMT5 full length (1-637 aa) (human) (UniProt O14744); test: co-IP; FLAG-tagged bait (FLAG-PRMT5 constructs or FLAG-TDP1 variants) expressed in HCT116, immunoprecipitated with anti-FLAG antibody, cells with or without CPT (5 uM, 3 h); lysis buffer 50 mM Tris-HCl pH 7.4, 300 mM NaCl, 0.4% NP40; overnight at 4°C; immunoblot of the endogenous partner
[9] = biological target: Flag-tagged C-terminal domain of PRMT5 (294-637 aa) (human) (UniProt O14744); test: as above
[10] = biological target: Flag-tagged N-terminal domain of PRMT5 (1-293 aa) (human) (UniProt O14744); test: as above

Sequences of proteins named here, by UniProt entry; tags and fusion partners are left off. A change or cut given only in a name is not applied to a line headed by its entry. A line that says so, or that is headed by a name, gives the form on record, which may keep a tag or linker. Residues count along the entry.
UniProt Q9NUW8: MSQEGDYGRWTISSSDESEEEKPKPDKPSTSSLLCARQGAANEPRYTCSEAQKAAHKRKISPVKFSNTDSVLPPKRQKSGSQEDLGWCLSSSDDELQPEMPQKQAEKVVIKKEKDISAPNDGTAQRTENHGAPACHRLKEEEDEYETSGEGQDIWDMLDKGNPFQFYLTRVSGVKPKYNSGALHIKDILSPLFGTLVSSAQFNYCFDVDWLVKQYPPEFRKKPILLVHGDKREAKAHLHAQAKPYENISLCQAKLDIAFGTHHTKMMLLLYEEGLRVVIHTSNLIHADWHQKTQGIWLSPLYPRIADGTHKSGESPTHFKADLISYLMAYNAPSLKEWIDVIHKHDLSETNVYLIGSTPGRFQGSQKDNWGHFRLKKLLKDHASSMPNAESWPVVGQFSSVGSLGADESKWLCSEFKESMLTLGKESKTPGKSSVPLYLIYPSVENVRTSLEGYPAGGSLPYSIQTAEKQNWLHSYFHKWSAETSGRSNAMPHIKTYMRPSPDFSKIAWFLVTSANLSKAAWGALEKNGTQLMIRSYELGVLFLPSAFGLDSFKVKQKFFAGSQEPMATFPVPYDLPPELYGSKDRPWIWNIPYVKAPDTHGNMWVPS
GFP-tagged N-terminal domain of TDP1 (1-185 aa): residues 1-185 of Q9NUW8
GFP-tagged C-terminal (catalytic) domain of TDP1 (185-608 aa): residues 185-608 of Q9NUW8
UniProt O14744: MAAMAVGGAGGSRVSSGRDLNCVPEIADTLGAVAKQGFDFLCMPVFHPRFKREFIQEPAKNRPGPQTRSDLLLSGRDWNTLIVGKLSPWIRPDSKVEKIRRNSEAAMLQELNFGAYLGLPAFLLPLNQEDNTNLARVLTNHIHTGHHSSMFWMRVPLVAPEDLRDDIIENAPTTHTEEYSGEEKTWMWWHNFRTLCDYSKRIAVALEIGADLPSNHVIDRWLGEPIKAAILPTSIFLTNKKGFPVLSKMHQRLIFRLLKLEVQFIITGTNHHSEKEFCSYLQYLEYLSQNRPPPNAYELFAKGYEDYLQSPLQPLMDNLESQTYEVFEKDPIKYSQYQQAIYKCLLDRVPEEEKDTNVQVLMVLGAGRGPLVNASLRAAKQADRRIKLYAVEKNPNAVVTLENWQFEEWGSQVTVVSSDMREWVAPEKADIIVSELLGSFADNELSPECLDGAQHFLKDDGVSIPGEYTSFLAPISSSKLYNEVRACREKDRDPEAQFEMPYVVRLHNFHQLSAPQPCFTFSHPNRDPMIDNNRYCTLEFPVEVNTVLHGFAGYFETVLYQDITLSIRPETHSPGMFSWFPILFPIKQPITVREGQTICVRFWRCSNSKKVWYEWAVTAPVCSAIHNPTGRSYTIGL
Flag-tagged N-terminal domain of PRMT5 (1-293 aa): residues 1-293 of O14744
Flag-tagged C-terminal domain of PRMT5 (294-637 aa): residues 294-637 of O14744

Row | Substance | binding [1] | binding [2] | binding [3] | binding [4] | binding [5] | binding [6] | binding [7] | binding [8] | binding [9] | binding [10]
1 | Protein arginine methyltransferase PRMT5 (endogenous) (from UniProt O14744 1-637) | binds | binds | binds weakly | binds | binds | binds | binds | – | – | –
2 | Tyrosyl-DNA phosphodiesterase 1 (endogenous TDP1) (from UniProt Q9NUW8 1-608) | – | – | – | – | – | – | – | binds | binds weakly | binds

— article PMC6009676
